Drawing on the odorant receptor screen of Mainland et al. (2015), this text covers odorant receptor activation for seven compounds.

Assay in all cases: odorant receptor activation (CRE luciferase / Renilla) (fold of no-odor wells); higher = more activation
Details in all cases: 100 µM

The test system of experiment [1] is OR2L8 clone 1515.
Experiment [2] relates to OR2M2 R220G/C235R clone 1494.
For experiment [3], the system named is OR2M3 clone 1054.
The subject of experiment [4] is OR2M4 clone 1053.
Experiment [5] concerns OR2M5 clone 1167.
Experiment [6] concerns OR2M7 F35L/V78A/C178F clone 1378.
For experiment [7], the system named is OR2M7 F35L/V78A/C178F/D191N clone 1401.
For experiment [8], the system named is OR2M7 clone 1377.
Experiment [9] deals with OR2S2 clone 1462.
The test system of experiment [10] is OR2T1 P132L clone 1474.
The test system of experiment [11] is OR2T10 clone 1047.
Experiment [12] deals with OR2T11 C119R/Q309R clone 1050.
For experiment [13], the system named is OR2T11 C119R/Q309R clone 1051.
Experiment [14] relates to OR2T2 clone 1561.
Experiment [15] concerns OR2T29 clone 1545.
The test system of experiment [16] is OR2T3 clone 1397.
Experiment [17] concerns OR2T34 clone 1049.
Experiment [18] has as its system OR2T35 V31I clone 1562.
The test system of experiment [19] is OR2T4 clone 1347.
Experiment [20] concerns OR2T5 clone 1033.

The structures appear in SMILES notation. “And” between values parts separate entries of the source, which are not always exact repeats. Equal values may be shown once. This is one part of the list. Single wells; the ratio to wells without odorant was worked out here, and repeats agree poorly.

Take `CC(=O)OC1CC2CCC1(C)C2(C)C` (centres undefined) [isobornyl acetate]: the odorant receptor activation in experiment [1] was 0.829 and 0.842; in [2], 1 and 1.06; in [3], 0.626; in [4], 0.507; in experiment [5], 1.15; in experiment [6], 1.03. The odorant receptor activation is 0.706 in experiment [7]; 1.15 in experiment [8]; 0.829 and 1.05 in experiment [9]; 0.943 and 1.3 in experiment [10]; 0.687 in experiment [11]; 0.689 in experiment [12]. For the same compound, the odorant receptor activation in experiment [13] was 1.56; in experiment [14] it was 0.847; in [15], 0.872 and 1.15; in [16] it was 0.856; in experiment [17], 1.64; in [18], 0.175. Besides, the odorant receptor activation in [19] was 1.05 and 0.721; in [20], 0.717.
For the compound `c1cnccn1` [pyrazine], the odorant receptor activation in [1] turned out to be 0.965; in [2], 0.859; in experiment [3], 0.845; in experiment [4] it was 0.982; in experiment [5], 0.994; in experiment [6], 0.984. In addition, the odorant receptor activation was found to be 0.877 in experiment [7]; 1.06 in experiment [8]; 0.851 in experiment [9]; 1.05 in experiment [10]; 1.17 in [11]; 1.16 in experiment [12]. In addition, the odorant receptor activation amounted to 0.676 in experiment [13]; 0.861 in [14]; 0.895 in experiment [15]; 1.21 in [16]; 0.941 in experiment [17]; 0.812 in experiment [18]. Further, the odorant receptor activation was 0.848 in experiment [19] and 1.2 in experiment [20].
As to `C=CCSCC=C` [diallyl sulfide], the odorant receptor activation in experiment [1] was 1.18; in [2], 1.19; in experiment [3], 0.727; in experiment [4], 0.896; in [5] it was 1.24; in experiment [6], 1.13. In addition, the odorant receptor activation worked out at 0.926 in experiment [7]; 0.967 in [8]; 1.22 in [9]; 1.26 in [10]; 0.991 in experiment [11]; 0.996 in experiment [12]. The odorant receptor activation in experiment [13] came to 0.951; in experiment [14], 0.907; in [15] it was 1.43; in [16], 1.05; in experiment [17] it was 1.06; in experiment [18], 0.856. The odorant receptor activation in experiment [19] was 1.12; in experiment [20] it was 0.901.
`CCCCCCCCCCC=O` [undecanal]: the odorant receptor activation in [1] stood at 1.23; in [2] it was 1.09; in experiment [3], 0.982; in experiment [4], 1.04; in experiment [5], 0.961; in experiment [6], 1.12. Moreover, the odorant receptor activation in experiment [7] was determined as 1; in [8], 0.98; in experiment [9], 1.15; in experiment [10], 1.04; in experiment [11], 1.21; in experiment [12] it was 0.971. The odorant receptor activation in experiment [13] was found to be 0.874; in [14], 0.781; in [15], 0.797; in experiment [16], 1.22; in [17], 1.13; in [18], 1.1. For the same compound, the odorant receptor activation in experiment [19] was 1.03; in [20] it was 1.12.
With `CC1COCc2cc3c(cc21)C(C)(C)C(C)C3(C)C` (centres undefined) [galaxolide], the odorant receptor activation in experiment [1] was 5.95 and 4.98; in experiment [3], 1.55; in experiment [4] it was 2.07; in [5], 4.92; in experiment [6], 3.79; in [7] it was 2.67. The odorant receptor activation in experiment [8] was 4.42; in experiment [10] it was 6.63 and 4; in [11], 5.63; in experiment [12] it was 1.5; in experiment [13], 4.26; in experiment [16], 3.03. For the same compound, the odorant receptor activation in experiment [17] is 4.79; in experiment [18], 0.387 and 1.14; in experiment [20], 3.67.
For the compound `CCCCCOC(C)=O` [n-amyl acetate], the odorant receptor activation in experiment [1] was 1.18 and 0.762; in experiment [2], 0.809 and 0.989; in experiment [3], 1.24; in [4], 1.13; in experiment [5], 0.583; in [6] it was 0.875. For the same compound, the odorant receptor activation in experiment [7] was 0.995; in experiment [8], 0.757; in experiment [9], 0.889 and 0.943; in experiment [10], 0.575 and 1.38; in experiment [11], 2.13; in experiment [12], 1.54. In addition, the odorant receptor activation in experiment [13] stood at 2.05; in experiment [14] it was 0.647; in [16] it was 0.766; in experiment [17], 1.85; in experiment [18], 1.09; in [19], 0.738. In [20], this compound displayed an odorant receptor activation of 0.854.
Consider `CCC1(O)C2(C)CCC(C2)C1(C)C` (centres undefined) [2-ethylfenchol], for which the odorant receptor activation turned out to be 1.21 in experiment [1]; 0.845 in [2]; 2.81 in experiment [3]; 3.19 in [4]; 0.882 in experiment [5]; 0.72 in experiment [6]. In addition, the odorant receptor activation in experiment [7] is 0.52; in experiment [8], 0.705; in [9] it was 1.15; in experiment [10] it was 1.06; in [11], 4; in experiment [12], 2.71. The odorant receptor activation in experiment [13] was found to be 3.03; in [14] it was 0.675; in experiment [15] it was 1.18; in [16] it was 2.85; in [17], 2.56; in experiment [18], 0.142. Also, the odorant receptor activation in [19] was found to be 0.937; in experiment [20], 2.65.
